The values that follow come from patent publication US10770169B2, “Method of providing a treatment to a subject based on a dynamic pathway map” (THE REGENTS OF THE UNIVERSITY OF CALIFORNIA, priority 2010, dated 2020).

The test concerns panel of 55 breast cancer cell lines. The test can be described thus: Cell growth inhibition assay (Cell Titer Glo, 72 h, 9 doses; GI50, TGI, LC50). Type of test: cell-based. To be noted: Homo sapiens. For orientation: Cellular ATP, detected with luciferase, serves as a proxy for viable cell number.

In the case of `COc1cc2ncnc(Nc3ccc(F)c(Cl)c3)c2cc1OCCCN1CCOCC1` [Gefitinib], the GI50 (usually the concentration giving 50% growth inhibition) (HCC202, cell line HCC202) is 0.457 µM.
On to `COc1cc2ncnc(Nc3ccc(F)c(Cl)c3)c2cc1OCCCN1CCOCC1` [Iressa], for which the concentration for 50% growth inhibition (GI50) (HCC202, HCC202 cell line, censored GI50 values) is 0.457 µM.
